Measurements taken from patent US20130053305A1 (UNIVERSIDAD DE BARCELONA, priority 2010, published 2013).

How the values were obtained:
[1] = general procedure: Fmoc solid-phase peptide synthesis; Fmoc-Rink resin (0.47 mmole/g); Clorotrytil chloride resin (0.6 mmole/g) for Example 6; HBTU/DIEA; conditions: whole synthesis; for final HPLC purity: area integration of HPLC trace
[2] = general procedure: Fmoc solid-phase peptide synthesis; chlorotrityl chloride resin; HBTU/DIEA; conditions: whole synthesis
[3] = scale of the general procedure 0.282 mmole (Example 1), 0.48 mmole (Example 6)

Nonanoyl-Arg-Thr-Dab-Cyclo(4-10)[Dab-Dab-DPhe-Leu-Arg-Dab-Thr]
final HPLC purity [1, 3]: >91'8%

Nonanoyl-Arg-Thr-Dab-Cyclo(S—S)[Cys-Dab-DLeu-Thr-Arg-Dab-Cys]
final HPLC purity [1, 3]: >95%

Nonanoyl-Arg-Thr-Dab-Cyclo(S—S)[Cys-Dab-DPhe-Gly-Arg-Dab-Cys]
final HPLC purity [1, 3]: >95%

Nonanoyl-Arg-Thr-Dab-Cyclo(S—S)[Cys-Dab-DPhe-Leu-Arg-Dab-Cys]-Leu-Met-Trp-Trp-Met-Leu
final HPLC purity [1, 3]: >95%

Nonanoyl-Arg-Thr-Dab-Cyclo(S—S)[Cys-Dab-DPhe-Leu-Arg-Dab-DCys]
final HPLC purity [1, 3]: >95%

Nonanoyl-Arg-Thr-Dab-Cyclo(S—S)[Cys-Dab-DPhe-Thr-Arg-Dab-Cys]
final HPLC purity [1, 3]: >95%

Nonanoyl-Arg-Thr-Dab-Cyclo(S—S)[Cys-Dab-Gly-Leu-Arg-Dab-Cys]
final HPLC purity [1, 3]: >95%

Nonanoyl-Arg-Thr-Dab-Cyclo(S—S)[Cys-Dab-Phe-Leu-Arg-Dab-Cys]
final HPLC purity [1, 3]: >95%

nonanoyl-Arg-Thr-Dab-cyclo(4-10)[Dab-Dab-DPhe-Leu-Arg-Dab-Thr]
isolated mass [1]: 11 mg | crude yield [1, 3]: 21% | crude mass [2]: 130 mg
